At least one structure is not confirmed: it was looked up by name or label, or the drawing left a doubt. Peptide text beside a SMILES is read from it.
Target: ACE2 protein (Homo sapiens, UniProt Q9BYF1)
Test: Binding ability between SCOL peptide and ACE2 by Biacore X100
Settings: read-out: dissociation constant KD; ACE2 fixed on SA chip; 3.125-100 μg/mL; 25° C.

Protein sequences, listed by entry. Tags and fused reporters are not part of them. Residues count along the entry.
UniProt Q9BYF1, 18-805: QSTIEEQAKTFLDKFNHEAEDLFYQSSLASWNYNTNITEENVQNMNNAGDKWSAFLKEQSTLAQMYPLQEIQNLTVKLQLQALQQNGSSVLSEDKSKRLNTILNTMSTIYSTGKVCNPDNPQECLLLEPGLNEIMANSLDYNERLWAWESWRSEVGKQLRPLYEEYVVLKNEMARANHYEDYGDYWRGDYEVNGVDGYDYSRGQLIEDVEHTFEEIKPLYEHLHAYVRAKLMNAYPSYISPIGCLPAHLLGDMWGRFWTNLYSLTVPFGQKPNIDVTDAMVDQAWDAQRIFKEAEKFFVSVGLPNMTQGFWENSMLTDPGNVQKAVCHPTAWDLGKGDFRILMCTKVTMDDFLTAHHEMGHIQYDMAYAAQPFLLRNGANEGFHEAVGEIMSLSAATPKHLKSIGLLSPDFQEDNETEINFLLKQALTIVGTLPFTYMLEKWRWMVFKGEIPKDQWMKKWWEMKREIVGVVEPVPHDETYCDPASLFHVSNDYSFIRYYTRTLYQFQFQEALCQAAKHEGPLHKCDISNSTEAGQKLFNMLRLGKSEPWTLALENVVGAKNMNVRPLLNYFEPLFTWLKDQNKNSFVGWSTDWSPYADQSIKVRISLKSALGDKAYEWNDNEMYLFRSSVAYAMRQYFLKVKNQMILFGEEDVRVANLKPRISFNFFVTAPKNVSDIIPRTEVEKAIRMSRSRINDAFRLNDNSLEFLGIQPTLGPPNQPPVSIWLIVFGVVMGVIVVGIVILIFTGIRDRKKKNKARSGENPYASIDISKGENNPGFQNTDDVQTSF

For `CC[C@H](C)[C@H](N)C(=O)N1CCC[C@H]1C(=O)N[C@@H](CO)C(=O)N[C@H](C(=O)N[C@H](C(=O)N1CCC[C@H]1C(=O)N[C@@H](Cc1ccccc1)C(=O)N1CCC[C@H]1C(=O)N[C@@H](CO)C(=O)N[C@H](C(=O)N[C@H](C(=O)N[C@H](C(=O)N[C@@H](C)C(=O)N[C@H](C(=O)N[C@H](C(=O)N[C@H](C(=O)N[C@@H](CCSC)C(=O)O)[C@@H](C)O)[C@@H](C)O)[C@@H](C)O)C(C)C)[C@@H](C)O)[C@@H](C)O)[C@@H](C)O)[C@@H](C)O` [SCOL peptide, Ile-Pro-Ser-Thr-Thr-Pro-Phe-Pro-Ser-Thr-Thr-Val-Ala-Thr-Thr-Thr-Met] (H-IPSTTPFPSTTVATTTM-OH; N-terminus and C-terminus assumed), the Kd was 76.9 µM.
